Laboratory results published in patent EP1925314A1, “Pharmaceutical composition with synergistic anticonvulsant effect” (SCHWARZ PHARMA AG, priority 2006, dated 2008).
For part of these data: At least one read-out could not be matched to a standard name with certainty. For part of these data: At least one compound was matched to its structure with a doubt left. Some of these results come from one statement about several compounds together.

Columns and labels:
[1] = system: neurotransmitter receptors or ion channels; details: more than 100 different sites (Errington et al. 2006); cited from earlier work
[2] = system: 6 Hz-induced seizures; assay: 6 Hz seizure test in mice, with isobolographic analysis of drug combinations

SMILES | binding to a large variety of neurotransmitter receptors or ion channels [1] | ED50 in 6 Hz test, times higher than the ED50 needed for protection of maximal electroshock seizures ([2]; compared with MES in mice and rats (Stoehr et al., submitted)) | anticonvulsant effects against 6 Hz seizure ([2]; drugs administered alone, i.p., mice)
COC[C@@H](NC(C)=O)C(=O)NCc1ccccc1 [LCM, R-2-acetamido-N-benzyl-3-methoxypropionamide] | neither LCM nor its metabolites bind | 2-3 | –
CCCC(CCC)C(=O)O [VPA, valproate] | – | – | dose-dependent anticonvulsant effects
